Test results as given in patent US20240319212A1, “METHOD OF MEASURING THE ENDOCYTIC VITAMIN D STATUS” (Immundiagnostik AG, priority 2018, published 2024).
Results are given in words; binding and its absence hold for the method and conditions named. Some results given as binding are weak or reduced against the parent protein; the word gives no strength.

Protein sequences, listed by entry. Tags and fused reporters are not part of them. Lines headed by an entry give the natural chain unless they say otherwise; changes in a name come on top.
UniProt P98164: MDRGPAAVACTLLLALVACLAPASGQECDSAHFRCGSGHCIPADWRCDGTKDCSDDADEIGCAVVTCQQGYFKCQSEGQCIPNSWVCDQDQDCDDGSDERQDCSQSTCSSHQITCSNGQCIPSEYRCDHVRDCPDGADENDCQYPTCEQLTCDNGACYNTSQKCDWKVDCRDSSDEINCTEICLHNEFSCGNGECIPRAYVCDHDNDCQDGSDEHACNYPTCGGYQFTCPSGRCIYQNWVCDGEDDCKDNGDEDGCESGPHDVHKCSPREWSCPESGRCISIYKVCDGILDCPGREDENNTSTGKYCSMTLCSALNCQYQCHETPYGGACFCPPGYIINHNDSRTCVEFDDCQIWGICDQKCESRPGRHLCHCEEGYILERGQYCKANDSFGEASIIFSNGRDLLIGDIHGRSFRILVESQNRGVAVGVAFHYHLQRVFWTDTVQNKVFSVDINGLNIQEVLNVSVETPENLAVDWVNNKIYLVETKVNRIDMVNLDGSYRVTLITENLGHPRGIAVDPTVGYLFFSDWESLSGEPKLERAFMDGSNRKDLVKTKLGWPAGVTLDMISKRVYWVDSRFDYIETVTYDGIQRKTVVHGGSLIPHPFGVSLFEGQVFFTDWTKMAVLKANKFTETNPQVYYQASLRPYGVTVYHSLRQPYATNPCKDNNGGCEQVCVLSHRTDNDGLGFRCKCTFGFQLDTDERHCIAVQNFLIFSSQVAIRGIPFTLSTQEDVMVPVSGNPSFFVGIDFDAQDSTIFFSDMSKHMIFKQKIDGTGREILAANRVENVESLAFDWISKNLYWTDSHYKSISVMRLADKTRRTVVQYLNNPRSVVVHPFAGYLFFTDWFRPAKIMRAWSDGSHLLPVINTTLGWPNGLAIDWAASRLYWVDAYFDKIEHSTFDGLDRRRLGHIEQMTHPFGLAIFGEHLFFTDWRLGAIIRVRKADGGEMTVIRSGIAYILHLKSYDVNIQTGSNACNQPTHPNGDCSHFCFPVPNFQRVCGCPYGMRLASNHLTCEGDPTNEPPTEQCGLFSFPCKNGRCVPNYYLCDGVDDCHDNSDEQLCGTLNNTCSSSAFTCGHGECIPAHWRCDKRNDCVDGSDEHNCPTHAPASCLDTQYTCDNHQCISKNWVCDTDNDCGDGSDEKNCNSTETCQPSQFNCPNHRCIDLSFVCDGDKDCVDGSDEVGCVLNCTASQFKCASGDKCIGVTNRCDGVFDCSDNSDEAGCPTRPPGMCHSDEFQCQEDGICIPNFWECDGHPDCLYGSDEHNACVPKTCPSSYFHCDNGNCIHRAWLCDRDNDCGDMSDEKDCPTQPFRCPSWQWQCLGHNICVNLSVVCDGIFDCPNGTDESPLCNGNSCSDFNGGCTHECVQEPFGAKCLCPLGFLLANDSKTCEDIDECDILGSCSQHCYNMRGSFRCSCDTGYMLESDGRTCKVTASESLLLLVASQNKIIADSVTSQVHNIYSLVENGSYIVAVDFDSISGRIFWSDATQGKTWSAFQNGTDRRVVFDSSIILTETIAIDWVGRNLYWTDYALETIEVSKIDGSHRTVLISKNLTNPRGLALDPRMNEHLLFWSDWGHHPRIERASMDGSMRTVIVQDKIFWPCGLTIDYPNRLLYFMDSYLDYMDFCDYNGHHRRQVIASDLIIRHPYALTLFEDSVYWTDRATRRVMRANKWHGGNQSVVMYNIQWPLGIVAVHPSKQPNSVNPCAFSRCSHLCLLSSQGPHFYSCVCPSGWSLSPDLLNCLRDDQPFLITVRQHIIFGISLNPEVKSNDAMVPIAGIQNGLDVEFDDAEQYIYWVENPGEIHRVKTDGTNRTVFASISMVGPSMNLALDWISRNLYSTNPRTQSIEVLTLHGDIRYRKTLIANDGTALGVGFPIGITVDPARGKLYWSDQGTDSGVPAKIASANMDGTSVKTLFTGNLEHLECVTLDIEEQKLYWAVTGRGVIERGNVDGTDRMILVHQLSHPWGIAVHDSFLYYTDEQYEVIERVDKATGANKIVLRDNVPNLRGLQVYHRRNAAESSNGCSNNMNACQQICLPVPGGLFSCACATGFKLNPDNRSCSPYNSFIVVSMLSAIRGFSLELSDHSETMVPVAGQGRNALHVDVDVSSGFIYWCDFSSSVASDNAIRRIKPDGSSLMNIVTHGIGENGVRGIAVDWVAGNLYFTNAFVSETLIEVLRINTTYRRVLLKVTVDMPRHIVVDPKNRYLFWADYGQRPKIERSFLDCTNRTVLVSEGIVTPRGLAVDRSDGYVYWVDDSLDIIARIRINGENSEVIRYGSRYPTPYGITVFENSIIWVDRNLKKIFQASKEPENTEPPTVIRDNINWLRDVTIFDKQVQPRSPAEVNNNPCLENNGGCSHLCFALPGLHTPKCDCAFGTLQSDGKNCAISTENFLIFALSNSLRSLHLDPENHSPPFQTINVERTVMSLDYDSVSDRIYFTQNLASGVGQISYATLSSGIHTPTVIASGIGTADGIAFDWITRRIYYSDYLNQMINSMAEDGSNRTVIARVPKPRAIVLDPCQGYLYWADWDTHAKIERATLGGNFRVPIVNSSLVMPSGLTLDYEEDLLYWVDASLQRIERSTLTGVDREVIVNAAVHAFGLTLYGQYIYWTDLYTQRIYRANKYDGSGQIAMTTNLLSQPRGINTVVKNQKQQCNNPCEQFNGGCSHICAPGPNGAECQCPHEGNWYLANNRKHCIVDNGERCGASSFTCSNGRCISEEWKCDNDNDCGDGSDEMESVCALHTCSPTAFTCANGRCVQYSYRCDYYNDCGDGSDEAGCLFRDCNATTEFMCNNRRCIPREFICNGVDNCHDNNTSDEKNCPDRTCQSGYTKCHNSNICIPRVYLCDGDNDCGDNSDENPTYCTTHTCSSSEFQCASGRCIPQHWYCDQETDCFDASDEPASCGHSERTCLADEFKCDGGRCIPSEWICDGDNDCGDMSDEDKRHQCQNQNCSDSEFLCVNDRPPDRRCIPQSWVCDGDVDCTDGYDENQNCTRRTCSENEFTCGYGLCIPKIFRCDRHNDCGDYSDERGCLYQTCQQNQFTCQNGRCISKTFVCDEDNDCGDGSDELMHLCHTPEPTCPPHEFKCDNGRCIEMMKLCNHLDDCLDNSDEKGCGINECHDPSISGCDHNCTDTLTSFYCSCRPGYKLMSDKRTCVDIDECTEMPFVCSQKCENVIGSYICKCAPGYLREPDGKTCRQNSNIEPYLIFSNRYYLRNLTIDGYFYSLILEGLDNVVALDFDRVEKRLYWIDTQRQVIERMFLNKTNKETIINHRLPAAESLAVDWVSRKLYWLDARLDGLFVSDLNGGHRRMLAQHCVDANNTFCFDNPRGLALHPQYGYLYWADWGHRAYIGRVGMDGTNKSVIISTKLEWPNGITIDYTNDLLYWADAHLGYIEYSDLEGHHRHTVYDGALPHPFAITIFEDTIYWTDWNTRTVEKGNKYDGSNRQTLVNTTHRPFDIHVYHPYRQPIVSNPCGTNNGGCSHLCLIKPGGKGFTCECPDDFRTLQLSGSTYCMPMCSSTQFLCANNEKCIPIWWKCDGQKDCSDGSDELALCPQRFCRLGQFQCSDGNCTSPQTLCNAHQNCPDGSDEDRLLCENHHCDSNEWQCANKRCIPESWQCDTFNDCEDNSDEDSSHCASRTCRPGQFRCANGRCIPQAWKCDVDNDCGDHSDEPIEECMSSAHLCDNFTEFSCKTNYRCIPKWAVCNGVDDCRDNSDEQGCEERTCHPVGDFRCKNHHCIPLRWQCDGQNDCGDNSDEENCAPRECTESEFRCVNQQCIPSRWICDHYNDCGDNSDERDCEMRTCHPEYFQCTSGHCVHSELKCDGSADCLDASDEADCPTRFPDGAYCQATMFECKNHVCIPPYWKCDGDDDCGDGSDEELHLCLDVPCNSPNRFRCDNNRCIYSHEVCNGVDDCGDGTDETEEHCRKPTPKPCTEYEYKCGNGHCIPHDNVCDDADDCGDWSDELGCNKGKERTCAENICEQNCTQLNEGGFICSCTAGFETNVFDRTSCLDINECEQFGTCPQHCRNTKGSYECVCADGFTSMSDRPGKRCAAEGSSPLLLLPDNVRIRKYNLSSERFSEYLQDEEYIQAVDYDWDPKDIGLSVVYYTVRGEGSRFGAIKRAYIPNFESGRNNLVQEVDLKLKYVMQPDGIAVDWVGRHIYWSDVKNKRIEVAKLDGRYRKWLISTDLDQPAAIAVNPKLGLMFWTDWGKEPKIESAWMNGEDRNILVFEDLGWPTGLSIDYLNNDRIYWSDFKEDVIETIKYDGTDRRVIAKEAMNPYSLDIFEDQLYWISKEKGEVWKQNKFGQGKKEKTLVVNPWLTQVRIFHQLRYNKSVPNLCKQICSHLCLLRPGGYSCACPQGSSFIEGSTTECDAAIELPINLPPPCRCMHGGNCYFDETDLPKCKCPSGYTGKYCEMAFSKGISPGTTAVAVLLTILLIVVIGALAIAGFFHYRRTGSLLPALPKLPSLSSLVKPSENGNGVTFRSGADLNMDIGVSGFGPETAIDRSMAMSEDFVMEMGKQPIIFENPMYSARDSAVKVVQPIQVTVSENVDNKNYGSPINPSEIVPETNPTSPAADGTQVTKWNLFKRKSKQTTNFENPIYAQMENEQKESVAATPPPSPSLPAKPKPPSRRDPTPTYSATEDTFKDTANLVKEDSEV

Target: soluble recombinant megalin M2 fragment (amino acids 1024-1429 of human LRP2/megalin, C-terminal 6x His tag) (human) (UniProt P98164)
Assay: peptide array of megalin M2 region; major binding epitopes of megalin ligands

B1: Human PTH (ligand, UniProt P01270 32-115, looked up)
chain: SVSEIQLMHNLGKHLNSMERVEWLRKKLQDVHNFVALGAPLAPRDAGSQRPRKKEDNVLVESHEKSLGEADKADVNVLTKAKSQ
  binding: binds
